Experimental data from publication PMC11019930, “DnaK duplication and specialization in bacteria correlates with increased proteome complexity” (mSystems, 2024).
No constants are given. Whether binding was seen depends on the method and setting. In cells and extracts the contact can be indirect. These calls come from enrichment with a bait or labelling near it, and not all partners need be listed.

The chains behind the UniProt entries cited, without tags or fusion partners.
UniProt P95334: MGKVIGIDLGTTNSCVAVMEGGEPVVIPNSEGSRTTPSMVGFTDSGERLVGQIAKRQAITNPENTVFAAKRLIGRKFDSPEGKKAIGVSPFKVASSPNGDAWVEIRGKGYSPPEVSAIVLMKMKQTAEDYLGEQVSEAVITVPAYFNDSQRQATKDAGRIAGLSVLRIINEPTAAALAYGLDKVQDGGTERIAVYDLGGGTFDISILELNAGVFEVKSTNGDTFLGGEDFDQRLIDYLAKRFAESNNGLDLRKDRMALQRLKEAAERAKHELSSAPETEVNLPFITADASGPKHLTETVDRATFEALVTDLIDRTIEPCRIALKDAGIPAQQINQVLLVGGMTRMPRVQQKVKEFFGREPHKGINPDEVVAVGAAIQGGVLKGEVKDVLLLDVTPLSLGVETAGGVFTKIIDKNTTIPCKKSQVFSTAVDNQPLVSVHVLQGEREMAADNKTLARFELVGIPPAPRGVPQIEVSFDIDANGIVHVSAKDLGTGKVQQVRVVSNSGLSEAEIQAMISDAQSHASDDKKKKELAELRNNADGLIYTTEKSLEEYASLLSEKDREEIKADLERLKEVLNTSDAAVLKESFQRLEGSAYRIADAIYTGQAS

Legend:
[1] = molecular target: His6-MxDnaK2 (Myxococcus xanthus DK1622) (UniProt P95334); test: affinity purification with mass spectrometry; two bands of 70–100 kDa in the lane of His6-MxDnaK2 purified from E. coli BL21 (DE3) on Ni-NTA, SDS-PAGE; identified as His6-MxDnaK2 with host proteins
[2] = molecular target: MxDnaK1 (MXAN_3192) (Myxococcus xanthus DK1622); test: affinity purification with mass spectrometry; Co-IP from the soluble lysate of M. xanthus (DK1622; YL2203, YL2212, YL2213 for the chimeras) with anti-MxDnaK1 or anti-MxDnaK2 antibodies and Protein A/G beads, 4°C overnight; 50 U/mL apyrase in the lysis buffer to deplete ATP; LC-MS/MS, q-value ≤0.01, proteins found in at least two of three experiments
[3] = molecular target: MxDnaK2 (MXAN_6671) (Myxococcus xanthus DK1622) (UniProt P95334); test: as above

Row | binding [1] | binding [2] | binding [3] | Binder
1 | binds | – | – | anti-FlhDC factor (WP_001300634.1, 27 kDa) (protein, UniProt P76204 1-237) MKIFLENLYHSDCYFLPIRDNQQVLVGVELITHFSSEDGTVRIPTSRVIAQLTEEQHWQLFSEQLELLKSCQHFFIQHKLFAWLNLTPQVATLLLERDNYAGELLKYPFIELLINENYPHLNEGKDNRGLLSLSQVYPLVLGNLGAGNSTMKAVFDGLFTRVMLDKSFIQQQITHRSFEPFIRAIQAQISPCCNCIIAGGIDTAEILAQITPFDFHALQGCLWPAVPINQITTLVQR
2 | – | binds | binds | MXAN_6672 (protein, UniProt P95333 1-255) MTVIEVEASGPSTPVEAEASASPADTTSPPSDAEATPSEDVAALRQEVESLKAQLEFSQAKGRETMERLREAHERAKEAQERTVRHAADLENYRKRAQKEKEEVQRFGSEKLLKDLLPVMDNLDRAIDAAAKSPDLDSFEKGVAMTRKSFEDALGRHGVKGFSAKGQVFDPRVHEAIQQVETADVPAGHVAYEVVRGFYLNERLVRPAMVVVARAPAEPVAAAEPPAVAEPATATTDTEAPAAPAQSENSSGGSQ
